{
  "sequences": {"note": "The chains behind the UniProt entries cited, without tags or fusion partners. Where a name states a change or a piece, a line headed by the entry shows the natural chain unless it says otherwise.", "UniProt P15428": "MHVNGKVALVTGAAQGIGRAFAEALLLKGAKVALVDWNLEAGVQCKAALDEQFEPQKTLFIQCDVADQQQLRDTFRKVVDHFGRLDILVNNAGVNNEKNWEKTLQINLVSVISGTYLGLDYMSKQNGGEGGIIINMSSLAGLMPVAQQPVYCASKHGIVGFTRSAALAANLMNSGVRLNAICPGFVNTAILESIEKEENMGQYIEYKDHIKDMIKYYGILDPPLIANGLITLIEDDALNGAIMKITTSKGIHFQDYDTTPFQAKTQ"},
  "source": "PubChem BioAssay AID743171",
  "about": "(National Center for Advancing Translational Sciences (NCATS), 2013)",
  "note": "Inconclusive means that the source gave no clear call. Such entries were picked first, then a sample of the others. Potencies beside an inconclusive call are fits to weak or partial responses and may not hold up. Activity calls are given as the source filed them. Calls come from the whole dose curve; as a rule, active = well fitted inhibition curve with a large enough effect; inconclusive = small, poorly fitted or top-dose-only effect; inactive = flat fitted curve, though single readings scatter.",
  "data": [
    {"biological_target": "15-hydroxyprostaglandin dehydrogenase [NAD(+)] (Homo sapiens) (UniProt P15428)", "test": "Extended Characterization of HPGD Inhibitors: Activity in Primary Assay (HPGD)", "conditions": "recombinant HPGD, NADH fluorescence, PGE2 substrate; activity, negative = inhibition: at 57.1 µM (top of the series)", "text": "The central role of HPGD is to inactivate prostaglandins such as prostaglandin E2 (PGE2) or prostaglandin D2 (PGD2). These prostaglandins are involved in a number of processes, including inflammation, differentiation, and cellular signaling, which makes HPGD an important target for pharmacological intervention. Inhibition of 15-PGDH (HPGD) activity was screened by utilizing prostaglandin as an electron donor and NAD+ as an electron acceptor/cofactor. An increase in the fluorescence intensity due to conversion of NAD+ to NADH was used to measure the enzyme activity. All compounds were screened using a qHTS approach, where compounds are assayed using at least seven concentrations to generate concentration-response curves for every compound. Briefly, qHTS uses an inter-plate dilution method where the first plate contains the highest concentration of a set of compounds in DMSO, while subsequent plates contain the same compounds in the same well locations, but at successive lower concentrations. NIH Chemical Genomics Center [NCGC] NIH Molecular Libraries Probe Centers Network [MLPCN] MLPCN Grant: MH084681 Assay Submitter (PI): Structural Genomics Consortium\nThree uL of enzyme (20 nM final concentration) were dispensed to 1536-well Greiner black solid bottom plates. Compounds (23 nL) were transferred via Kalypsys PinTool. The plates were incubated for 15 min at room temperature, and then 1 uL of substrate/cofactor solution (Substrate/cofactor solution: 1 mM NAD+ and 30 uM prostaglandin (Sigma, prostaglandin E2, #P5640)) were added to start the reaction. The plates were immediately transferred to and read 4 times every 30 seconds on a ViewLux High-throughput CCD imager (Perkin-Elmer) using 340 nm excitation and 450 nm emission fluorescence protocol. The fluorescence intensity difference between the last and the first time points, normalized against controls, was used to compute reaction progress.", "values": [
      {"smiles": "CC(C)(C)c1cccc(-n2cnc3cc(C(=O)N4CCCCC4)ccc32)c1", "Potency": "active: 171 nM"},
      {"smiles": "Cc1cccc(-n2cnc3cc(C(=O)N4CCC(Cc5ccccc5)CC4)ccc32)c1", "Potency": "inconclusive: 24100 nM [inhibitor, partial curve]"},
      {"smiles": "Cc1cccc(-n2cnc3cc(C(=O)N4CCC(N5CCOCC5)CC4)ccc32)c1", "activity, negative = inhibition": "inactive: -5.4%"},
      {"smiles": "N#Cc1ccccc1CNc1nc2ncc(Br)cc2[nH]1", "activity, negative = inhibition": "inconclusive: -34% [inhibitor]"},
      {"smiles": "Clc1ccc(CSc2nc3ncc(Br)cc3[nH]2)cc1", "activity, negative = inhibition": "inconclusive: -22.3% [inhibitor]"},
      {"smiles": "COC(=O)C1CCN(C(=O)c2ccc3c(c2)ncn3-c2cccc(C)c2)CC1", "Potency": "inconclusive: 19200 nM [inhibitor, partial curve]"},
      {"smiles": "FC(F)(F)c1ccc(-c2nc(-c3nnc4n3CCCCC4)c(C(F)(F)F)o2)cc1", "activity, negative = inhibition": "inactive: -16%"},
      {"smiles": "Cc1cccc(-n2cnc3cc(C(=O)N4CCC(Br)CC4)ccc32)c1", "Potency": "active: 76.4 nM"},
      {"smiles": "CC(C)(C)c1ccc(CSc2nc3ncc(Br)cc3[nH]2)cc1", "activity, negative = inhibition": "inactive: -15.2%"},
      {"smiles": "O=[N+]([O-])c1ccc(CSc2nc3ncc(Br)cc3[nH]2)cc1", "Potency": "inconclusive: 192 nM [inhibitor, full curve]"},
      {"smiles": "Clc1ccc(CSc2nc3ncc(Br)cc3[nH]2)cc1Cl", "Potency": "inconclusive: 152 nM [inhibitor, full curve]"},
      {"smiles": "FC(F)(F)c1ccc(CSc2nc3ncc(Br)cc3[nH]2)cc1", "activity, negative = inhibition": "inconclusive: -19.8% [inhibitor]"},
      {"smiles": "FC(F)(F)c1cccc(CSc2nc3ncc(Br)cc3[nH]2)c1", "Potency": "inconclusive: 242 nM [inhibitor, full curve]"},
      {"smiles": "Cc1cccc(-n2cnc3cc(C(=O)NC(C)(C)C)ccc32)c1", "Potency": "inconclusive: 21500 nM [inhibitor, partial curve]"},
      {"smiles": "Fc1ccc(CSc2nc3ncc(Br)cc3[nH]2)cc1", "Potency": "inconclusive: 429 nM [inhibitor, full curve]"},
      {"smiles": "Cc1cccc(-n2cnc3cc(C(=O)N4CCC(c5ccccc5)CC4)ccc32)c1", "Potency": "inconclusive: 9610 nM [inhibitor, partial curve]"}
    ]}
  ]
}
